From PubChem BioAssay AID1508615 (Milbrandt Lab, Department of Genetics, Washington …, 2020)
In all, about 1,600 compounds went through this assay and about 20 (1%) were called active.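 Rule for the calls: active = ratio of uncleaved NAD to its breakdown product ADP-ribose above 4, meaning the enzyme was inhibited; inactive = the rest.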 Some of the results follow.

Chains of the proteins cited; added tags and fusions are not shown. Lines headed by an entry give the natural chain unless they say otherwise; changes in a name come on top.
UniProt Q6SZW1: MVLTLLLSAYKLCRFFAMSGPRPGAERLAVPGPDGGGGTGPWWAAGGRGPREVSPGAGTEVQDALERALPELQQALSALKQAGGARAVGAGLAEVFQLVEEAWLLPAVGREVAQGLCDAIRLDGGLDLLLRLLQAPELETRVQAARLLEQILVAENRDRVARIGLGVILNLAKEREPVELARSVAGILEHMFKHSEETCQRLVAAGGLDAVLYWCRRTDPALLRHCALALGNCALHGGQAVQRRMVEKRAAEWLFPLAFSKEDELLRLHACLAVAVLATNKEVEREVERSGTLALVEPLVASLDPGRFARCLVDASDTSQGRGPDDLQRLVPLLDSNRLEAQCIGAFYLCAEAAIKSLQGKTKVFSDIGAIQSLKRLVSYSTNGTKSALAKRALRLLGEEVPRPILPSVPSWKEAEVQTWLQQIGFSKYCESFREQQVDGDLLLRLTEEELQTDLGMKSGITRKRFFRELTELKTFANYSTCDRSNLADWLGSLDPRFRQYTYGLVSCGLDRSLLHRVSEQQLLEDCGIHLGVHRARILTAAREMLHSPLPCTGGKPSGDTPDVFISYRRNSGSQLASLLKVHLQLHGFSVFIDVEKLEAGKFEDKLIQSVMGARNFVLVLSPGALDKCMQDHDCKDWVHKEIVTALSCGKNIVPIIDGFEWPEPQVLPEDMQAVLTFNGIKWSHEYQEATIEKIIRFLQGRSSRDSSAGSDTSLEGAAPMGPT

Biological target: NAD(+) hydrolase SARM1 (Homo sapiens) (UniProt Q6SZW1)
Test: inhibition of SAM-TIR NAD hydrolysis to ADPR – cell lysate, HPLC readout, primary screen (AID 1508615);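 note: substrate NAD at 5 µM with 60 min at 37 °C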
Settings: HEK293T SAM-TIR lysate, NAD/ADPR ratio by HPLC; at 5 µM; active compounds read high

NAD/ADPR ratio, active:
CC(=O)c1cc(O)c2ccccc2c1O 10.2

NAD/ADPR ratio, inactive:
O=C(Nc1ccc(O)c(C(=O)O)c1)Oc1ccccc1 3
CCNC(=O)Oc1ccc[nH]c1=O 3
COc1cccc(-c2nnc(N)o2)c1 3
Cc1nc2ccccc2c(N)c1-c1cc(C)c2c(C)nc3ccccc3c2n1 3
O=[N+]([O-])c1cnc(Sc2ccncn2)s1 3
O=C1OC(Cc2ccccc2)C(c2ccccc2)C1=O (configuration not stated) 3
CCCOc1nc2c(c(=O)n(C)c(=O)n2C)n1C 3
OCc1ncccc1O 3
CCOC(=O)c1c(C)c(C(=O)OCC)n(C)c1C 3
[O-]/[N+](=C\c1ccccc1)CC1(O)CCCCC1 3
CCOC(CNCc1cc(C)c2[nH]c3ccccc3c2c1C)OCC 3
C#CC1(O)CCC2C3CCC4=Cc5oncc5CC4(C)C3CCC21C (configuration not stated) 3
Nc1nnc(-c2cccnc2)s1 3
Cc1ccc(C(N)=Nc2ccccc2)cc1 3
O=C(Nc1ccc(Br)c2ccccc12)c1ccc2ccccc2c1O 3
COc1cccc(/C=C2\CCc3ccccc3C2=O)c1 3
NS(=O)(=O)c1ccc(N=Nc2ccc(=O)[nH]c2O)cc1 3
CC(=O)OCCN1c2ccccc2Sc2cnccc21 3
Cc1ccc(NC(=O)Nc2nc3ccccc3s2)cc1NC(=O)Nc1nc2ccccc2s1 3
O=C1OCC/C1=C\OCCCO/C=C1\CCOC1=O 3
COc1cc(-c2ccc(NC(=O)NC3CC3)c(OC)c2)ccc1NC(=O)NC1CC1 3
Nc1n[nH]c(CO)n1 3
Cc1cc(C)n2c(C)nnc2c1 3
COc1c(/C=N/NC(N)=O)c(OC)c(OC)c2c1CCO2 3
CC(=O)NC1=C/C(=C\[N+](=O)[O-])C=C1O 3
CCOC(=O)/C(C#N)=C/c1c[nH]c2ccccc12 3
Nc1ccc(C(=O)C(=O)c2ccc(N)cc2)cc1 3
CC1=C(C(N)=O)S(=O)(=O)c2ccccc21 3
O=C1/C(=C/c2ccc([N+](=O)[O-])cc2)CCc2ccccc21 3
CC(C)(C)n1nc(C2CC2)cc1NC(=O)Nc1ccccc1 3
Nc1ccc(-c2nc3nc(N)nc(N)c3nc2-c2ccc(N)cc2)cc1 3
CC(C)(NC(=O)c1cc(Cl)c2ccccc2c1O)C(=O)O 3
COc1ccc(N=Cc2c(O)ccc3c2oc2cc(Cl)c(O)c(Cl)c23)cc1 3
CC(=O)NS(=O)(=O)c1ccc2sc(C)nc2c1 3
O=C(O)c1cc2ccccc2cc1Nc1ccccc1 3
CC1(C)N=C(N)N=C(N)N1c1cccc(CN)c1 3
CCCCCC(=O)N1CCCC1 3
Cc1ccc(Nc2ccc(N)cc2S(=O)(=O)O)cc1 3
CC(=O)Nc1ccc(OC(=O)Oc2ccc(NC(C)=O)cc2)cc1 3
N=C1CCC(=N)c2c1c(O)c1ccccc1c2O 3
CCOC(=O)Nc1ccc2nc(Sc3ccc(Cl)cc3)sc2c1 3
COc1cc(C2NC(=O)C(C#N)=C(Nc3cccc(C)c3)S2)ccc1O (configuration not stated) 3
COc1ccc2c3c1OC1CC(O)C=CC31CCN(C)C2 (configuration not stated) 3
Cc1cc(NC(=O)NC(=O)c2ccccc2NC(=O)C(C)N)ccc1Oc1ncc(Br)cn1 (configuration not stated) 3
CCCCn1cnc2c(=S)nc(N)[nH]c21 3
O=c1[nH]cc(Cl)cc1Cl 3
O=C(Nc1cccc(-c2ccccc2)c1)N1CCN(C(=O)Nc2cccc(-c3ccccc3)c2)CC1 3
CC(O)(c1ccccc1)C(c1ccccc1)C1CCCCN1 (configuration not stated) 3
CC1(C)N=C(N)NC(=NCCCOc2ccc([N+](=O)[O-])cc2)N1 3
COC(=O)Nc1csc2c1NC(=O)CCCC2 3
CCOC(=O)CSc1nc2nc(Cl)c(Cl)nc2[nH]1 3
Oc1ccc2ccccc2c1N=Nc1nccs1 3
Clc1ccc(Oc2nc3c(Cl)cccc3s2)cc1Cl 3
CCc1ccc(CCN2C(=O)c3ccccc3C2=O)nc1 3
CC(C)C(=O)Nc1cccnc1 3
CC(=O)Nc1ccc(S(=O)(=O)N=S(C)C)cc1 3
NC(=O)c1nnsc1-c1ccc(-c2snnc2C(N)=O)cc1 3
CN(C)c1ccc(C(c2ccc(N(C)C)cc2)c2ccc([N+](=O)[O-])cc2)cc1 3
CC1=NCC(C)c2ccccc21 (configuration not stated) 3
Nc1ccc(SCc2nc3cccc4c3n2CCC4)cc1 3
COc1cccc2nc3cc(C)c(C)cc3nc12 3
COc1cc(C(=O)c2cocc2C(=O)c2ccc3c(c2)OCO3)cc(OC)c1OC 3
COc1cc2oc3cc(C)oc(=O)c3c2cc1OC 3
O=c1cc(-c2ccccc2)nc2cc(-c3ccco3)[nH]n12 3
CC(=O)Nc1ccc(OCCOc2ccc([N+](=O)[O-])cc2)cc1 3
CCN1CCC(Nc2ccnc3cc(Cl)ccc23)CC1 3
CCOC(=O)C1CC(C)=C(C)CC1C(=O)O (configuration not stated) 3
CCC(CO)Nc1nc2ccc(Cl)cc2c2ccccc12 (configuration not stated) 3
NC(N)=NS(=O)(=O)c1ccc(N=C2C(=O)Nc3ccccc32)cc1 3
CCCCC(=O)N(CCC)CCC 3
O=C(Nc1ccsn1)c1ccc(Cl)cc1Cl 3
Cc1cc(=O)n2c3c(c4c(cc13)c(CN(C)C)cc(=O)n4C)OC2 3
Oc1cccc2cnccc12 3
CCOC(=O)/C=C/c1ccc(C(=O)OCC)[nH]1 3
COc1cc(C(O)c2nc3ccccc3s2)cc(OC)c1OC (configuration not stated) 3
O=C1CCCC1C(=O)Nc1ccc2ccccc2c1 (configuration not stated) 3

Arranged by molecular weight (high to low): some entries from above.
NAD/ADPR ratio, inactive:
Nc1ccc(C(=O)C(=O)c2ccc(N)cc2)cc1 3
COc1cccc2nc3cc(C)c(C)cc3nc12 3
Nc1n[nH]c(CO)n1 3
